Test results from patent publication US20050112108A1.
No constants are given. Whether binding was seen depends on the method and setting. Some results given as binding are weak or reduced against the parent protein; the word gives no strength.

Target: in vitro translated GAAP-1 (human) (UniProt P15822)
Experiment: EMSA, in vitro translated GAAP-1 with NF-κB oligonucleotide

Substance: in vitro translated GAAP-1 (from UniProt P15822 2027-2718)
- binding: binds
